Experimental data reported in the supplement of paper PMC7238544.
Structures can show the parent of a compound that is named as a salt. ± gives the standard deviation of the averaged measurements. The list shows a part of the results. The data scatter; read single values as rough.

Key:
hAMSC donor 1 [1] = assay: Hoechst total cell count ratio vs vehicle control; higher = more cells (less toxicity)
hAMSC donor 2 [2] = assay: as above
hAMSC donor 1 [3] = assay: transgenic luciferase activity (RLU/mg protein) fold change vs vehicle control (ratio); higher = more transgene expression
hAMSC donor 2 [4] = assay: as above
hAMSC donor 1 [5] = assay: transfection efficiency (EGFP+ cells / Hoechst count) fold change vs vehicle control (ratio); hAMSC are human adipose-derived mesenchymal stem cells given an EGFP-luciferase plasmid by lipofection; higher = enhanced transfection
hAMSC donor 2 [6] = assay: as above
[7] = priming compound concentration 0.2 µM
[8] = priming compound concentration 1.7 µM
[9] = priming compound concentration 13 µM

| SMILES | Hoechst total cell count ratio (hAMSC donor 1 [1]; [7]) | Hoechst total cell count ratio (hAMSC donor 1 [1]; [8]) | Hoechst total cell count ratio (hAMSC donor 1 [1]; [9]) | Hoechst total cell count ratio (hAMSC donor 2 [2]; [7]) | Hoechst total cell count ratio (hAMSC donor 2 [2]; [8]) | Hoechst total cell count ratio (hAMSC donor 2 [2]; [9]) | transgenic luciferase activity (hAMSC donor 1 [3]; [8]) | transgenic luciferase activity (hAMSC donor 1 [3]; [9]) | transgenic luciferase activity (hAMSC donor 2 [4]; [8]) | transgenic luciferase activity (hAMSC donor 2 [4]; [9]) | transfection efficiency (hAMSC donor 1 [5]; [7]) | transfection efficiency (hAMSC donor 1 [5]; [8]) | transfection efficiency (hAMSC donor 1 [5]; [9]) | transfection efficiency (hAMSC donor 2 [6]; [7]) | transfection efficiency (hAMSC donor 2 [6]; [8]) | transfection efficiency (hAMSC donor 2 [6]; [9]) | transgenic luciferase activity (hAMSC donor 1 [3]; [7]) | transgenic luciferase activity (hAMSC donor 2 [4]; [7]) |
| --- | --- | --- | --- | --- | --- | --- | --- | --- | --- | --- | --- | --- | --- | --- | --- | --- | --- | --- |
| C[C@]12C=CC(=O)C=C1CC[C@@H]1[C@@H]2C(=O)C[C@@]2(C)[C@H]1CC[C@]2(O)C(=O)CO [Prednisone] | 1.2 ± 0.14 | 0.786 ± 0.029 | 0.967 ± 0.091 | 0.853 ± 0.23 | 0.743 ± 0.21 | 1.03 ± 0.27 | 0.608 ± 0.36 | 0.627 ± 0.035 | 0.725 ± 0.092 | 0.422 ± 0.1 | 1.57 ± 0.19 | 1.39 ± 0.73 | 1.8 ± 0.64 | 1.08 ± 0.12 | 1.04 ± 0.15 | 1.88 ± 0.033 | – | – |
| Cn1cnc([N+](=O)[O-])c1Sc1ncnc2[nH]cnc12 [Azathioprine] | 1.11 ± 0.064 | 1.04 ± 0.028 | 0.995 ± 0.13 | 1.27 ± 0.24 | 1.12 ± 0.32 | 1.5 ± 0.44 | 0.445 ± 0.44 | 1.04 ± 0.45 | 0.703 ± 0.032 | 0.586 ± 0.2 | 1.18 ± 0.28 | 1.55 ± 0.17 | 1.55 ± 0.28 | 0.954 ± 0.23 | 0.899 ± 0.13 | 1.18 ± 0.29 | – | – |
| CC(=O)OCC(=O)[C@@]1(O)CC[C@H]2[C@@H]3C[C@H](C)C4=CC(=O)C=C[C@]4(C)[C@H]3[C@@H](O)C[C@@]21C [Methylprednisolone acetate] | 1.16 ± 0.18 | 1.73 ± 0.12 | 1.19 ± 0.15 | 1.59 ± 0.54 | 1.82 ± 0.44 | 2.09 ± 0.18 | 4.6 ± 0.41 | 6.54 ± 1.7 | 2.92 ± 1.1 | 1.84 ± 0.3 | 1.91 ± 0.26 | 0.968 ± 0.33 | 2.25 ± 0.98 | 1.28 ± 0.46 | 2.13 ± 0.28 | 1.7 ± 0.34 | – | – |
| O=C1CCC(N2C(=O)c3ccccc3C2=O)C(=O)N1 (stereo unspecified) [Thalidomide] | 1.46 ± 0.097 | 1.32 ± 0.15 | 1.21 ± 0.18 | 1.07 ± 0.11 | 0.919 ± 0.1 | 1.04 ± 0.34 | – | 3.46 ± 5.2 | 0.612 ± 0.17 | – | 1.08 ± 0.072 | 1.1 ± 0.13 | 0.925 ± 0.21 | 1.28 ± 0.28 | 1.3 ± 0.065 | 1.34 ± 0.45 | 0.872 ± 0.47 | 0.828 ± 0.14 |
| Cc1ccc(Cl)c(Nc2ccccc2C(=O)O)c1Cl [Meclofenamic acid sodium salt] | 1.19 ± 0.15 | 1.44 ± 0.14 | 1.15 ± 0.069 | 1.17 ± 0.25 | 0.868 ± 0.026 | 1.32 ± 0.4 | – | 1.48 ± 1.2 | 0.783 ± 0.38 | – | 1.73 ± 0.076 | 1.31 ± 0.3 | 0.949 ± 0.15 | 1.07 ± 0.11 | 1.22 ± 0.059 | 0.961 ± 0.21 | 0.629 ± 0.45 | 0.876 ± 0.15 |
| Brc1c(NC2=NCCN2)ccc2nccnc12 [Brimonidine] | 1.02 ± 0.24 | 1.2 ± 0.1 | 1.24 ± 0.2 | 1.22 ± 0.016 | 0.8 ± 0.11 | 0.839 ± 0.22 | 1.89 ± 0.73 | – | 0.657 ± 0.061 | 0.276 ± 0.13 | 1.3 ± 0.39 | 1.29 ± 0.32 | 1.15 ± 0.14 | 0.834 ± 0.012 | 1.38 ± 0.13 | 1.42 ± 0.16 | 0.892 ± 0.3 | – |
| CO[C@H]1/C=C/O[C@@]2(C)Oc3c(C)c(O)c4c(O)c(c(/C=N/N5CCN(C)CC5)c(O)c4c3C2=O)NC(=O)/C(C)=C\C=C\[C@H](C)[C@H](O)[C@@H](C)[C@@H](O)[C@@H](C)[C@H](OC(C)=O)[C@@H]1C [Rifampicin] | 1.16 ± 0.16 | 1.25 ± 0.16 | 1.6 ± 0.061 | 1.16 ± 0.058 | 0.776 ± 0.036 | 1.21 ± 0.15 | – | 5.46 ± 0.39 | 0.459 ± 0.081 | – | 1.2 ± 0.42 | 1.04 ± 0.18 | 0.822 ± 0.11 | 1.02 ± 0.13 | 1.55 ± 0.13 | 0.978 ± 0.064 | 0.256 ± 0.17 | 0.775 ± 0.12 |
| CC(C)n1c(/C=C/C(O)CC(O)CC(=O)O)c(-c2ccc(F)cc2)c2ccccc21 (stereo unspecified) [Fluvastatin] | 1.05 ± 0.17 | 0.807 ± 0.2 | 0.8 ± 0.11 | 0.792 ± 0.26 | 0.608 ± 0.12 | 1.08 ± 0.17 | 0.7 ± 0.53 | 0.7249 ± 0.0055 | 0.926 ± 0.087 | 0.421 ± 0.12 | 1.51 ± 0.35 | 2.37 ± 0.78 | 2.07 ± 0.73 | 1.11 ± 0.31 | 1.63 ± 0.15 | 1.02 ± 0.28 | – | – |
| CN(C)CCOC(c1ccc(Cl)cc1)c1ccccn1 (stereo unspecified) [Carbinoxamine maleate] | 1.12 ± 0.17 | 1.55 ± 0.16 | 1.42 ± 0.28 | 1.15 ± 0.038 | 0.888 ± 0.14 | 1.06 ± 0.098 | 1.27 ± 0.1 | – | 0.511 ± 0.081 | 0.482 ± 0.14 | 1.08 ± 0.15 | 1.12 ± 0.2 | 1.06 ± 0.22 | 0.864 ± 0.046 | 1.4 ± 0.06 | 1.2 ± 0.12 | 0.624 ± 0.24 | – |
| CCCNC(C)C(=O)Nc1ccccc1C (stereo unspecified) [Prilocaine hydrochloride] | 1.23 ± 0.11 | 0.972 ± 0.072 | 1.03 ± 0.087 | 0.799 ± 0.16 | 0.818 ± 0.067 | 0.994 ± 0.031 | 0.671 ± 0.57 | 0.865 ± 0.25 | 0.744 ± 0.11 | 0.808 ± 0.42 | 1.11 ± 0.26 | 1.42 ± 0.44 | 0.932 ± 0.23 | 1.52 ± 0.32 | 1.28 ± 0.18 | 1.43 ± 0.15 | – | – |
| CN(C)CCCN1c2ccccc2CCc2ccccc21 [Imipramine hydrochloride] | 1.22 ± 0.075 | 1.31 ± 0.21 | 1.47 ± 0.25 | 0.838 ± 0.039 | 0.881 ± 0.063 | 1.2 ± 0.18 | – | 0.675 ± 0.18 | 0.463 ± 0.31 | – | 1.31 ± 0.3 | 1.06 ± 0.13 | 1 ± 0.17 | 1.04 ± 0.11 | 1.35 ± 0.44 | 1.01 ± 0.25 | 0.796 ± 0.067 | 1.04 ± 0.2 |
